From publication PMC11077971 (mBio, 2024)

What was measured:
[1] = molecular target: T1, GST-BC1ΔBCCP^Core (Met1-Lys510) (Chloroflexus aurantiacus J-10-fl) (UniProt A9W9X0); test: pull-down; GST-fused BC proteins and His-tagged CTβ-CTα, similar procedure as with GST-CTβ-CTα; SDS-PAGE; also with 2 mM NaHCO3 and Ac-CoA added (not affected); both purified
T1 sequence: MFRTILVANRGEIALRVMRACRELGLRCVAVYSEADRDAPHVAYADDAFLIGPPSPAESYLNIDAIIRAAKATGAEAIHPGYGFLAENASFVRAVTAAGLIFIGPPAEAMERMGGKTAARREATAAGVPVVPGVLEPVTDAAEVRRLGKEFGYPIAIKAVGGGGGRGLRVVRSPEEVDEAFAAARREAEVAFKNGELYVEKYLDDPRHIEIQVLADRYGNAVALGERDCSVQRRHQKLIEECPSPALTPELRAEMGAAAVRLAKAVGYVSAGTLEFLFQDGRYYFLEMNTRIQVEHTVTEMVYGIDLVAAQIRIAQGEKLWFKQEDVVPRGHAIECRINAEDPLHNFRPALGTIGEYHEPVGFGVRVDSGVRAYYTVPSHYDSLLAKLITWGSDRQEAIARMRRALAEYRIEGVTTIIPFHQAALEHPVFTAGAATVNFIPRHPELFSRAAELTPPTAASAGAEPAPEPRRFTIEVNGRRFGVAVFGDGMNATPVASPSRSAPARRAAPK

[2] = molecular target: T2, GST-tagged BC1ΔBCCP (Met1-Glu452) (Chloroflexus aurantiacus J-10-fl) (UniProt A9W9X0); test: as above
T2 sequence: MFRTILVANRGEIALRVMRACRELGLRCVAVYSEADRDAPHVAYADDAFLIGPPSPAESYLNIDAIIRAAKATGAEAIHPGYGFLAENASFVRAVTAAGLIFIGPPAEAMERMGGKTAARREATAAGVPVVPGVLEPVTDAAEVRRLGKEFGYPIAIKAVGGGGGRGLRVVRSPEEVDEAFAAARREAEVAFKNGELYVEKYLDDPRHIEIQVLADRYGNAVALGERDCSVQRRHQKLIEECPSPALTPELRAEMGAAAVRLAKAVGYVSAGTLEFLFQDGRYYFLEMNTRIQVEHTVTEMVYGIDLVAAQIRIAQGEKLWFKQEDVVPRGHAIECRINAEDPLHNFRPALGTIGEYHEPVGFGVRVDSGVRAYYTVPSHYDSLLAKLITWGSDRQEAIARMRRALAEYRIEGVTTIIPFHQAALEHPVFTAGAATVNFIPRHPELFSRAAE

[3] = molecular target: T3, GST-tagged biotinylated BC1 (Chloroflexus aurantiacus J-10-fl) (UniProt A9W9X0); test: as above
T3 sequence (chain, biotin on Lys553): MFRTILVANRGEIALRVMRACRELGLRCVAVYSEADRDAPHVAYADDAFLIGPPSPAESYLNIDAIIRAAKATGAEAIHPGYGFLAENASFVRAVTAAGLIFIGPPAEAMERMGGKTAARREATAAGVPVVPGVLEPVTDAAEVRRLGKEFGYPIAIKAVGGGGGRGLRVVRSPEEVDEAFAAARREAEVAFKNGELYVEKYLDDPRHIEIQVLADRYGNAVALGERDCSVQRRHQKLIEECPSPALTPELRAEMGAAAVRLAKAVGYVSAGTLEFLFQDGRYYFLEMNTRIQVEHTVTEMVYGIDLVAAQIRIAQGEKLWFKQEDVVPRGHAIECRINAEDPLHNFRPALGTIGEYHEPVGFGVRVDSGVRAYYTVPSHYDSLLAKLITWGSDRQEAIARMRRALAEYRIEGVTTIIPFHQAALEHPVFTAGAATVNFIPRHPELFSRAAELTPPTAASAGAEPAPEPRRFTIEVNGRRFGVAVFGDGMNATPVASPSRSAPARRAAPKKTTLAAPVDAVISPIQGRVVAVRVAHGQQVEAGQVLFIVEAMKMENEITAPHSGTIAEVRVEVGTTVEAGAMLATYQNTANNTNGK

[4] = molecular target: T4, GST-tagged BC1K553A (Chloroflexus aurantiacus J-10-fl) (UniProt A9W9X0); test: as above
T4 sequence: T3 sequence (chain, biotin on Lys553) with K553A

[5] = molecular target: T5, GST-tagged BC2 (Chloroflexus aurantiacus J-10-fl) (UniProt A9WKH8); test: as above
T5 sequence: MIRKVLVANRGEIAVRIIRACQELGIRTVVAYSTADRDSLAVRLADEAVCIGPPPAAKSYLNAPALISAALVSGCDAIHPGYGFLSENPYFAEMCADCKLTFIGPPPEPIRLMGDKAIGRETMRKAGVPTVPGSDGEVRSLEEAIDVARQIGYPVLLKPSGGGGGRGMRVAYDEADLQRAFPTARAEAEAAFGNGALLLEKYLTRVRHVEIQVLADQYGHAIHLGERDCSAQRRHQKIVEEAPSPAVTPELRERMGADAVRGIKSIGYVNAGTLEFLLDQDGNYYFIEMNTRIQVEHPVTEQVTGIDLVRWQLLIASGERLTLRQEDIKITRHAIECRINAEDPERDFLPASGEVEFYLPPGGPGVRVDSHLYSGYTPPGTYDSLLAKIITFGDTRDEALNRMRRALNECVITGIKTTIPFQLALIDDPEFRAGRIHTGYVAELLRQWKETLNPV

[6] = molecular target: GST-CTβ-CTα subcomplex of Chloroflexus aurantiacus carboxyltransferase (Chloroflexus aurantiacus J-10-fl); test: pull-down; 50 ng GST-CTβ-CTα on glutathione-Sepharose resin as bait, 150 ng His6-tagged BC protein, 1 h at 4°C; 50 mM Tris-Base pH 9.0, 150 mM NaCl, 5 mM MgCl2, 5% glycerol, 0.01% Triton-X100; SDS-PAGE; also with 2 mM NaHCO3 and Ac-CoA added (not affected); both purified
[7] = molecular target: GST-CTβ-CTα subcomplex of Chloroflexus aurantiacus carboxyltransferase (Chloroflexus aurantiacus J-10-fl); test: co-purification (Ni2+-chelating, then GST affinity) + SEC; His6-BC1 and GST-CTβ-CTα co-expressed in E. coli BL21(DE3) with 10 mg/L biotin; 50 mM Tris-Base pH 9.0, 150 mM NaCl, 5 mM MgCl2, 5% glycerol; HiLoad 16/600 Superdex 200 PG; SDS-PAGE of the peak

Question: “His6-CTβ-CTα subcomplex of Chloroflexus aurantiacus carboxyltransferase” was tested. Which binding [1] did it give?
Answer: no binding

Question: What about the binding [2] of the same molecule?
Answer: no binding

Question: What about the binding [3] of the same molecule?
Answer: binds

Question: What about the binding [4] of the same molecule?
Answer: no binding

Question: What about the binding [5] of the same molecule?
Answer: no binding

B1: biotinylated His6-tagged Chloroflexus aurantiacus BC1 (enzyme, UniProt A9W9X0 1-596)
chain: T3 sequence (chain, biotin on Lys553)
modifications: biotin on Lys553
Question: What does the source list for B1?
Answer: binding [6]: binds; binding [7]: binds

B2: Chloroflexus aurantiacus BC2 (His6-tagged, Met1-Val455) (enzyme, Chloroflexus aurantiacus J-10-fl, UniProt A9WKH8 1-455, looked up)
chain: T5 sequence
notes: biotin carboxylase isoform BC2, Chloroflexus aurantiacus J-10-fl, 455 residues; Met1-Val455 is called full-length; also called His6-BC2; biotin carboxylase isoform 2; not shown: His6, N-terminal, kept
Question: Which binding [6] does the source give for B2 here?
Answer: no binding (tested: 150 ng)

B3: His6-BC1ΔBCCP (Met1-Glu452) (domain or fragment, Chloroflexus aurantiacus J-10-fl, UniProt A9W9X0 1-452, looked up)
chain: T2 sequence
notes: BC domain of biotin carboxylase isoform BC1, Chloroflexus aurantiacus J-10-fl; also called BCCP-truncated BC1 mutant; not shown: His6, N-terminal, kept
Question: Which binding [6] does the source give for B3 here?
Answer: no binding (tested: 150 ng)

B4: His6-BC1ΔBCCP^Core (Met1-Lys510) (domain or fragment, Chloroflexus aurantiacus J-10-fl, UniProt A9W9X0 1-510, looked up)
chain: T1 sequence
notes: biotin carboxylase isoform BC1 without the BCCP core, Chloroflexus aurantiacus J-10-fl; The cloning of this construct is not described in the methods; source: E. coli BL21(DE3), purified
Question: Which binding [6] does the source give for B4 here?
Answer: no binding

B5: His6-BC1K553A (enzyme, UniProt A9W9X0 1-596)
chain: T3 sequence (chain, biotin on Lys553) with K553A
Question: For B5, which binding [6] is on record?
Answer: no binding (tested: 150 ng)

Substitutions are numbered along the chain they refer to. Results are given in words; binding and its absence hold for the method and conditions named. For some assays here: Binding can be weak; no strength is given. Where a sequence is shown, tags or fusion partners need not be part of it. For some assays here: Binding seen in cells or lysates may run through a third protein.
